Experimental data: the supplement of paper PMC9015667
Counter-ions that a name gives are not always drawn. The list shows a part of the results. Most values come without repeats; read them as rough.

Tested on: M229P (parental melanoma line)
Assay: reduction in cell viability relative to untreated/vehicle; higher = more growth inhibition
Details: 200 nM; 72 h

SMILES	reduction in cell viability [%]
COc1cc(/C=C/C(=O)O)ccc1O [Fumalic acid]	6.56
CS(=O)(=O)OCCCCOS(C)(=O)=O [Busulfan]	< 0
NCCS(=O)(=O)O [l-Taurine]	< 0
CCN(CC)CCCCNc1nc2cc(Cl)c(Cl)cc2nc1-c1ccc(-c2cccs2)s1	< 0
CCc1cccc(CC)c1NC(=O)N1Cc2[nH]nc(NC(=O)c3ccc(N4CCN(C)CC4)cc3)c2C1	< 0
N#CC1(c2ccc(NC(=O)c3cccnc3NCc3ccncc3)cc2)CCCC1 [Apatinib]	< 0
O=C(CCCN1CCC(O)(c2ccc(Cl)cc2)CC1)c1ccc(F)cc1 [Haloperidol]	< 0
Cc1ccc(NC(=O)c2ccc(CN3CCN(C)CC3)cc2)cc1Nc1nc(-c2cccnc2)cs1 [Masitinib]	< 0
CCCN[C@H]1CCc2nc(N)sc2C1 [Pramipexole hydrochloride]	< 0
CCCCCCCCCCCCCCCCCCCCCCO [Docosanol]	< 0
C[C@@H]1CN(Cc2ccc(F)cc2)[C@@H](C)CN1C(=O)c1cc2c(C(=O)C(=O)N(C)C)cn(C)c2cc1Cl [Talmapimod]	< 0
CO[C@@H]1[C@H](N(C)C(=O)c2ccccc2)C[C@H]2O[C@]1(C)n1c3ccccc3c3c4c(c5c6ccccc6n2c5c31)C(=O)NC4=O [Stauprimide]	< 0
O=C(C[C@@H]1C/C=C/CCC(=O)O[C@H](c2ccccc2)CNC1=O)NCc1ccc(Cl)cc1 [Robotnikinin]	< 0
CC(C)(Oc1ccc(C2CC2(Cl)Cl)cc1)C(=O)O (centres undefined) [Ciprofibrate]	< 0
